Laboratory results taken from publication PMC9525679, “Inositol hexakisphosphate is required for Integrator function” (Nature Communications, 2022).
These are yes or no findings as the source states them, for the method shown. Some results given as binding are weak or reduced against the parent protein; the word gives no strength. For part of these data: Sequences can lack the tags named with a protein.

Protein sequences, listed by entry. Tags and fused reporters are not part of them.
UniProt Q9VAH9: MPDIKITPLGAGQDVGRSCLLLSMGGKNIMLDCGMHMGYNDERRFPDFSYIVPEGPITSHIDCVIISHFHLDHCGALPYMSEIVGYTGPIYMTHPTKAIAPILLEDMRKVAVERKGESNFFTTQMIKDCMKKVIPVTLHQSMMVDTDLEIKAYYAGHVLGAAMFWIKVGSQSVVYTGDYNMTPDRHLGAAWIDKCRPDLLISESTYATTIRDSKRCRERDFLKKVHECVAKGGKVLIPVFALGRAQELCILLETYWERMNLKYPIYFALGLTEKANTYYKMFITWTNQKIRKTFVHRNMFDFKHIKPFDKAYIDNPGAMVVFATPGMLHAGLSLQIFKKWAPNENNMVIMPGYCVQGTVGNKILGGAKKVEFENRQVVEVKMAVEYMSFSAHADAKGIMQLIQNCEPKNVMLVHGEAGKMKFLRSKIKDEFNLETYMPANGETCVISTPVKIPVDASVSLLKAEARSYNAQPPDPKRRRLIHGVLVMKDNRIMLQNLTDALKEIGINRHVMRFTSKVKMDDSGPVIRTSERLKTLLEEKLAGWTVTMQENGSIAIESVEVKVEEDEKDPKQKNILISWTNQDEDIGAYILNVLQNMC

How the values were obtained:
[1] = molecular target: T1, Drosophila IntS9, subunit of the Integrator cleavage module (Drosophila (D. melanogaster)) (UniProt Q95TS5); assay: SEC; gel filtration (Hiload 16/60 Superdex 200) of wild-type and K462E mutant Drosophila ICM co-expressed in insect cells, after nickel affinity; SDS gel of the complex; both purified
T1 sequence: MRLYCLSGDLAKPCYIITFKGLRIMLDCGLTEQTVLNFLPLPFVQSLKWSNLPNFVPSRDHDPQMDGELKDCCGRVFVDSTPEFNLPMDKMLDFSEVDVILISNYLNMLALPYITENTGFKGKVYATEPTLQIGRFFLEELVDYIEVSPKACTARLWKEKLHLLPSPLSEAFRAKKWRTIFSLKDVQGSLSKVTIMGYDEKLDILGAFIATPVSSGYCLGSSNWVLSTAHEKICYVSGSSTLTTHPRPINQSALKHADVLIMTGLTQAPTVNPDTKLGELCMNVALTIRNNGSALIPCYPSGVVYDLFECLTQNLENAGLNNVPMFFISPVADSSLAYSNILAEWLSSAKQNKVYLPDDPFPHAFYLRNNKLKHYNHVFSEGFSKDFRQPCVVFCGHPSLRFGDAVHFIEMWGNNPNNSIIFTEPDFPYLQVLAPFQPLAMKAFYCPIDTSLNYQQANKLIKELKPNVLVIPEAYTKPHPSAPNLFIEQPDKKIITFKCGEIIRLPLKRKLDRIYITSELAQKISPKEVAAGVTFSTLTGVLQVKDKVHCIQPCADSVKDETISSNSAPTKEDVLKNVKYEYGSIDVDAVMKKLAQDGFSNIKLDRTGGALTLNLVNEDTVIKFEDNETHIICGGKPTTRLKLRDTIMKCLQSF

[2] = molecular target: T2, Drosophila IntS4 (N-terminal 6xHis-tagged), subunit of the Integrator cleavage module (Drosophila (D. melanogaster)) (UniProt Q9W3E1); assay: as above
T2 sequence: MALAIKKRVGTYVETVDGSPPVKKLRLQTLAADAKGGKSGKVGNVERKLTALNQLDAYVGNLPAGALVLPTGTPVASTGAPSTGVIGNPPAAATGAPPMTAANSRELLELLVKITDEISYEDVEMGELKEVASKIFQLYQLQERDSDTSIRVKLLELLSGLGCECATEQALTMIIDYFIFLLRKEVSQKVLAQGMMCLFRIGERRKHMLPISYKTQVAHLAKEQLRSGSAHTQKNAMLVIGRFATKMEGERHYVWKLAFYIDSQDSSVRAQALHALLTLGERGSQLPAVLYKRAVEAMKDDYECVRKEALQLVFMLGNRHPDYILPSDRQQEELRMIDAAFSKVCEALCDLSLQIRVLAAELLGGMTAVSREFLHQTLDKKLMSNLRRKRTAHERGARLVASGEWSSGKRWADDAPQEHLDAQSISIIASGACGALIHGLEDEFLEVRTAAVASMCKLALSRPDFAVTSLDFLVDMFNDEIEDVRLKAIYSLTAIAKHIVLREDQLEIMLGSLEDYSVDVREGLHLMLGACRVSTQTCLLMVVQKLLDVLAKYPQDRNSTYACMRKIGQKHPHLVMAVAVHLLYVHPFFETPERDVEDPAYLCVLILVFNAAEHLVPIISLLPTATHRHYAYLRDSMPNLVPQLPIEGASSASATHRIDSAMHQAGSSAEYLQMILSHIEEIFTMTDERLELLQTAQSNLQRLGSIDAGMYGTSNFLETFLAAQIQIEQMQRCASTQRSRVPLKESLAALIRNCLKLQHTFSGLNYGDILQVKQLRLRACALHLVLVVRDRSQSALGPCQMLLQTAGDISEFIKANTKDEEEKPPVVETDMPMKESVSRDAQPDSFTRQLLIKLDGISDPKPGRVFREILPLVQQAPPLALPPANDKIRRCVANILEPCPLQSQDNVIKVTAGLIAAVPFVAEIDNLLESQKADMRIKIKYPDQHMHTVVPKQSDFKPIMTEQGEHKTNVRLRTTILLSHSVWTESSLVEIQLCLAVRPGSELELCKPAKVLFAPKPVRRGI

[3] = molecular target: T1, Drosophila IntS9, subunit of the Integrator cleavage module (Drosophila (D. melanogaster)); assay: cryo-EM structure; Drosophila IntS4-IntS9-IntS11 complex co-expressed in Tni insect cells and purified (nickel affinity, Superdex 200); 0.1 mg/ml on a gold grid with graphene oxide support film; 2.74 Å; IP6 bound; both purified
[4] = molecular target: T2, Drosophila IntS4 (N-terminal 6xHis-tagged), subunit of the Integrator cleavage module (Drosophila (D. melanogaster)); assay: as above

Measured: binding

Drosophila IntS11, subunit of the Integrator cleavage module (from UniProt Q9VAH9 1-597) (enzyme)
binds: all assays above

B1: Drosophila IntS9, subunit of the Integrator cleavage module (protein, UniProt Q95TS5 1-654)
chain: MRLYCLSGDLAKPCYIITFKGLRIMLDCGLTEQTVLNFLPLPFVQSLKWSNLPNFVPSRDHDPQMDGELKDCCGRVFVDSTPEFNLPMDKMLDFSEVDVILISNYLNMLALPYITENTGFKGKVYATEPTLQIGRFFLEELVDYIEVSPKACTARLWKEKLHLLPSPLSEAFRAKKWRTIFSLKDVQGSLSKVTIMGYDEKLDILGAFIATPVSSGYCLGSSNWVLSTAHEKICYVSGSSTLTTHPRPINQSALKHADVLIMTGLTQAPTVNPDTKLGELCMNVALTIRNNGSALIPCYPSGVVYDLFECLTQNLENAGLNNVPMFFISPVADSSLAYSNILAEWLSSAKQNKVYLPDDPFPHAFYLRNNKLKHYNHVFSEGFSKDFRQPCVVFCGHPSLRFGDAVHFIEMWGNNPNNSIIFTEPDFPYLQVLAPFQPLAMKAFYCPIDTSLNYQQANKLIKELKPNVLVIPEAYTKPHPSAPNLFIEQPDKKIITFKCGEIIRLPLKRKLDRIYITSELAQKISPKEVAAGVTFSTLTGVLQVKDKVHCIQPCADSVKDETISSNSAPTKEDVLKNVKYEYGSIDVDAVMKKLAQDGFSNIKLDRTGGALTLNLVNEDTVIKFEDNETHIICGGKPTTRLKLRDTIMKCLQSF
binds: [2] | [4]
